The target in this experiment is human CD276 protein (human) (UniProt Q5ZPR3). The experiment is described as follows: FACS on CHO-S-hCD276 cells.

Sequences of proteins named here, by UniProt entry; tags and fusion partners are left off. Residues count along the entry.
UniProt Q5ZPR3, residues 29-534: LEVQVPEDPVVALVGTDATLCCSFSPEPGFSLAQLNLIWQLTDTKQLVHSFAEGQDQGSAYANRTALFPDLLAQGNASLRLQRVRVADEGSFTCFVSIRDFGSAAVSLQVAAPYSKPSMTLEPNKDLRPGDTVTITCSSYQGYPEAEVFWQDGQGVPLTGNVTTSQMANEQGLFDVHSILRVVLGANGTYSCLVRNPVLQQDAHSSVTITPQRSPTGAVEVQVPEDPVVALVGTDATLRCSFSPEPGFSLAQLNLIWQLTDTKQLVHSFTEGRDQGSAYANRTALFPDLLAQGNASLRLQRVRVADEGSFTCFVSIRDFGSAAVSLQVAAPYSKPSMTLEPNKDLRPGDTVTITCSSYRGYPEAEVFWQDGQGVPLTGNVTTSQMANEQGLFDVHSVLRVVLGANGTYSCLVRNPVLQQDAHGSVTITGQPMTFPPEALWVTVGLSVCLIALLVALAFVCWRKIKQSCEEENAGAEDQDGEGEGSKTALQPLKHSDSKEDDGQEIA

The values below come from patent US20240400689A1.

No constants are given. Whether binding was seen depends on the method and setting. Some results given as binding are weak or reduced against the parent protein; the word gives no strength.

B1: 4-D5-B9-B11 (antibody, V domains shown)
VH: EIGGLVKPGGSLKFSCAASGFTFSSYAMSWVRQTPEKRLEWVATISGGGIYYPDSVKGRFTISRDNAKNTLYLQMSSLRSEDTAMYYCARQGSKGWDAMDYWGQGTSVTVSS
VL: QIVLTQSPAIMSASPGEKVTMTCRASSSVSFMHWYQQKSGTSPKRWIYETSKLASGVPDRFSGSGSGTSYSLTISSMEAEDAATYYCQQWSSNPLTFGAGTKLELK
As to B1, the binding result is “binds”.
